From paper PMC5472440 come the findings set out here.

Protein sequences, listed by entry. Tags and fused reporters are not part of them.
UniProt Q96EZ8: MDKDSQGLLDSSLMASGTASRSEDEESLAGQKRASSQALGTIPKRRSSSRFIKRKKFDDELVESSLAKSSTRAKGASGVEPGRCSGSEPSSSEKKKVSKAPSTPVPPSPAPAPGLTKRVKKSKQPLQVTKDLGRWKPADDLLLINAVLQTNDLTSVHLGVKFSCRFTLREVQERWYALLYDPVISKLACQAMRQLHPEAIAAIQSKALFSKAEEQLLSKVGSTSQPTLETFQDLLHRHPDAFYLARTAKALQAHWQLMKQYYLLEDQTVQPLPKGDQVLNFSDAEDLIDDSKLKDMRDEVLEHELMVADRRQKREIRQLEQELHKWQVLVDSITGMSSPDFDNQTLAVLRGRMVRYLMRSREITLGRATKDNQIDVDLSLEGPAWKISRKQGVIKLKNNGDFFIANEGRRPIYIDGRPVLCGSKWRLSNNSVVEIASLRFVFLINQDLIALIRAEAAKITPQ

These are yes or no findings as the source states them, for the method shown.

The assay has as its target full length human Ino80 subunit (human) (UniProt Q9ULG1). In words: co-purification of a recombinant complex; Coomassie-stained SDS gel of the purified full length recombinant human INO80 complex; subunit identities confirmed by Western blotting; bait not stated.

Consider MCRS1 (from UniProt Q96EZ8 1-462), for which the binding result is “no binding”.
